Binding data for 9 molecules are collected here from patent US20250136720A1.

B1: CD137 #B20 (antibody, human IgG1, V domains shown)
VH: EVKLVESEGGLVQPGSSMKLSCTASGFTFSDFYMAWVRQVPEKGLEWVANINYDGSSTYYLDSLKSRFIISRDNARNILYLQMSSLKSEDTATYYCAREGDEGWYFDVWGAGTTVTVSS
VL: DIVMTQSHKFMSTSVGDRVSITCKASQDVSTAVAWYQQKPGQSPKLLIYSASYRYTGVPDRFTGSGSGTDFTFTISSVQAEDLAVYYCQQHYSNPWTFGGGTKLEIK
B2: CD137 #B21 (antibody, human IgG1, V domains shown)
VH: B1 VH
VL: B1 VL
B3: CD137 #B19 (antibody, human IgG1, V domains shown)
VH: QVQLKQSGPGLVPPSQSLSITCTVSGFSLSSYGVHWVRQSPGKGLEWLGVIWSGGNTDFNAAFVSRLSISTEISESQVFFRMNSLQADDTAIYYCARNGPQYYFAMDYWGQGTSVTVSS
VL: DIVLTQSPASLTVSLGQRATISCRANKSVSTSGYSYMHWHQQKPGQPPKLLIYLASNLESGVPARFSGSGSGTDFTLNIHPVEEEDAATYYCQHSRELPLTFGAGTKLELK
B4: CD137 #B27 (antibody, human IgG1, V domains shown)
VH: QVQLQQSGAELVRPGASVKISCKAFGYTFTNHHINWVKQRPGQGLDWIGYINPYNDYSGYNQKFKGRATLTVDKSSNTAYMELSSLTSEDSAVYYCATPGTWEGYYFDYWGQGTTLTVSS
VL: DVVMTQTPLSLPVSLGDQASISCRSSQSLVHSNGNTYLEWYLQKPGQSPKVLIYMVSNRFSGVPDRFSGSGSGTDFTLKISRVEAEDLGVYYCFQGSHIPLTFGAGTKLELK
B5: CD137 #B17 (antibody, human IgG1, V domains shown)
VH: EVQLQQSGPELVKPGASVKMSCKASGYTFTYYVMHWVKQKPGQGLEWIGYINPYNDGTKYNEKFKGKATLTSDKSSSTAYMELSSLTSEDSAVYYCAPGSVDYWGQGTTLTVSS
VL: DIVMTQSQKFMSTSVGDRVSITCKASQNVGTSVAWYQQKSGHSPKLLIYSASNRNTGVPDRFTGSGSGTDFTLTISNMQSEDLADYFCQQYSTYPLTFGSGTKLEIK
B6: CD137 #B13 (antibody, human IgG1, V domains shown)
VH: QVQLQQPGAELVKPGASVKLSCKASGYTFTNFWINWVKQRPGQALEWIGNIYPGNDNTNYNGNFKTKATLTVDRSSSTAYMHLSSLTSKDSAVYYCARGQLGLDYWGQGTTLTVSS
VL: DILLTQSPAILSVSPGERVSFSCRASQNIGTTIHWYHQRTNGSPRLLIKFASESISGIPSRFSGSGSGTDFTLSINSVESEDFADYYCQQSNSWPFTFGSGTKLEIK
B7: CD137 #B28 (antibody, human IgG1, V domains shown)
VH: QVQLQQSGPQLIRPGASVKISCKASGYSFTGYWIHWVKQRPGQGLEWIGMIDPSDSETRLNQKFKDKATLTVDKSSTTAYMQLSSPTSEDSAVFYCARYRNYGYDGFAHWGQGTLVTVSA
VL: DIVMTQSPSSLTVTAGEKVTMSCKSSQSLLNSGNEKNYLAWYQQKPGQPPKLLIYWASTRESGVPDRFTGSGSGTDFTLTISSVQTEDLAVYHCQNDYSLPLTFGAGTKLELK
B8: CD137 #B31 (antibody, human IgG1, V domains shown)
VH: B7 VH
VL: B7 VL
B9: CD137 #B30 (antibody, human IgG1, V domains shown)
VH: B7 VH
VL: B7 VL

These are yes or no findings as the source states them, for the method shown. A result given as binding can be weak or reduced; the word gives no strength.

The assay concerns the target Human CD137 (4-1BB, TNFRSF9) (human). Put plainly: flow cytometry, CHO cells expressing human CD137, PE anti-human IgG-Fc. Background: Flow cytometry measures light scatter and fluorescence of single cells or particles in a stream.
For the molecule B1, the binding entry was “binds”. As to B2, the binding result is “binds”. B3: the binding entry was “binds”. Take B4: the binding entry is reported as “binds”. For B5, the binding result is on record as “binds”. With B6 the entry was “binds”. In the case of B7, the binding result is given as “binds”. In the case of B8, the binding entry is “binds”.

As to B9, the binding entry was “binds”.
